# In PMC8287961:
# The chains behind the UniProt entries cited, without tags or fusion partners.
# UniProt P83917: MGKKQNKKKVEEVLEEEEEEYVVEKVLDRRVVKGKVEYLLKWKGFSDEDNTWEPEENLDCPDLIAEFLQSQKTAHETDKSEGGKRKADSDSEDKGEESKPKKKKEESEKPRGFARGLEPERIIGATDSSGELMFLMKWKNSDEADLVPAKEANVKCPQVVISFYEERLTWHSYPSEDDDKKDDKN
# B1: KAP1 (endogenous, mESCs), Q62318 1-834 (protein)
# chain: MAASAAATAAASAATAASAASGSPGSGEGSAGGEKRPAASSAAAASAAASSPAGGGGEAQELLEHCGVCRERLRPERDPRLLPCLHSACSACLGPATPAAANNSGDGGSAGDGAMVDCPVCKQQCYSKDIVENYFMRDSGSKASSDSQDANQCCTSCEDNAPATSYCVECSEPLCETCVEAHQRVKYTKDHTVRSTGPAKTRDGERTVYCNVHKHEPLVLFCESCDTLTCRDCQLNAHKDHQYQFLEDAVRNQRKLLASLVKRLGDKHATLQKNTKEVRSSIRQVSDVQKRVQVDVKMAILQIMKELNKRGRVLVNDAQKVTEGQQERLERQHWTMTKIQKHQEHILRFASWALESDNNTALLLSKKLIYFQLHRALKMIVDPVEPHGEMKFQWDLNAWTKSAEAFGKIVAERPGTNSTGPGPMAPPRAPGPLSKQGSGSSQPMEVQEGYGFGSDDPYSSAEPHVSGMKRSRSGEGEVSGLLRKVPRVSLERLDLDLTSDSQPPVFKVFPGSTTEDYNLIVIERGAAAAAAGQAGTVPPGAPGAPPLPGMAIVKEEETEAAIGAPPAAPEGPETKPVLMPLTEGPGAEGPRLASPSGSTSSGLEVVAPEVTSAPVSGPGILDDSATICRVCQKPGDLVMCNQCEFCFHLDCHLPALQDVPGEEWSCSLCHVLPDLKEEDGSLSLDGADSTGVVAKLSPANQRKCERVLLALFCHEPCRPLHQLATDSTFSMEQPGGTLDLTLIRARLQEKLSPPYSSPQEFAQDVGRMFKQFNKLTEDKADVQSIIGLQRFFETRMNDAFGDTKFSAVLVEPPPLNLPSAGLSSQELSGPGDGP
# B2: SUV39H1 (endogenous, mESCs) (protein, UniProt O54864 1-412)
# chain: MAENLKGCSVCCKSSWNQLQDLCRLAKLSCPALGVSKKNLYDFEVEYLCDYKKIREQEYYLVKWRGYPDSENTWEPRQNLKCIRVLKQFHKDLERELVRRHRRSKPPRHLDPNLANYLVQKAKQRRALQRWEQELNAKRSHLGRITVENEVDLDGPPRSFVYINEYRVGEGITLNQVAVGCECQDCLLAPTGGCCPGASLHKFAYNDQGQVRLKAGQPIYECNSRCCCGYDCPNRVVQKGIRYDLCIFRTNDGRGWGVRTLEKIRKNSFVMEYVGEIITSEEAERRGQIYDRQGATYLFDLDYVEDVYTVDAAYYGNISHFVNHSCDPNLQVYNVFIDNLDERLPRIAFFATRTIWAGEELTFDYNMQVDPVDMESTRMDSNFGLAGLPGSPKKRVRIECKCGTTACRKYLF
# Key:
# [1] = biological target: Heterochromatin binding protein HP1β (endogenous, mESCs and EpiLCs) (mouse (endogenous in E14 mESCs)), P83917; assay: affinity purification with mass spectrometry; ChIP-MS: formaldehyde-crosslinked, MNase-digested chromatin of wt against HP1β−/− E14 mESCs (naive, 0 h) and EpiLCs (48 h ActivinA/FGF); anti-HP1β antibody (Abcam), protein A/G beads; washes with 140 mM and 500 mM NaCl, 1% Triton X-100; settings: remark: other sources report otherwise
# [2] = biological target: Heterochromatin binding protein HP1β (endogenous, mESCs and EpiLCs) (mouse (endogenous in E14 mESCs)) (UniProt P83917); assay: as above
Binder,binding [1],binding [2]
B1,binds,–
B2,–,binds

# These are yes or no findings as the source states them, for the method shown. In cells and extracts the contact can be indirect. These calls come from enrichment with a bait or labelling near it, and not all partners need be listed.
